Test results taken from PubChem BioAssay AID485314 (National Center for Advancing Translational Sciences (NCATS), 2010).
Screen size: about 340,000 compounds; about 4,500 (1.3%) were called active. The shares of active, inactive and inconclusive entries below differ from those in the screen. Calls come from the whole dose curve; as a rule, active = well fitted inhibition curve with a large enough effect; inconclusive = small, poorly fitted or top-dose-only effect, or another doubt; inactive = no such curve, though single readings can be large or run the other way. Potencies of inconclusive entries are doubtful fits and often do not repeat.
% is set by controls: 0 for no effect and ±100 for the full control effect; potency is the fitted concentration of half-maximal effect.

What follows are compounds tested against DNA polymerase beta (Homo sapiens) (UniProt P06746) (assay: qHTS Assay for Inhibitors of DNA Polymerase Beta). Settings: Pol beta primer extension/strand displacement, fluorescence kinetic; activity change, negative = inhibition: at 114 µM (top of the series).
In short: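 Kinetic readout of DNA synthesis with strand displacement by Pol beta. Compound and 10 nM enzyme sit 15 min at room temperature; 50 nM substrate starts the reaction, read immediately and at 10 min.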
For O=[N+]([O-])c1cc(S(=O)(=O)N2CCCC2)ccc1N/N=C/c1cccs1, the Potency was inconclusive: 1.12 µM [inhibitor, full curve].
CNc1ccc(Br)cc(C(=O)/C=C/c2ccc(OC)cc2OC)c1=O was tested, and the Potency was inconclusive: 89.1 µM [inhibitor, single point].
Cc1ccc(CSCCNC(=O)CSc2ccccc2)cc1 was tested, and the Potency was inconclusive: 89.1 µM [inhibitor, single point].
With CC(=O)Nc1ccc(OS(=O)(=O)c2ccccc2C)cc1 the Potency was inconclusive: 15.8 µM [inhibitor, partial curve, poor fit].
For COc1cc(-c2nc(SCC(=O)Nc3ccc(C)cc3)c(-c3ccc(F)cc3)[nH]2)cc(OC)c1OC, the Potency was inconclusive: 89.1 µM [inhibitor, single point].
With CCNc1ccc(S(=O)(=O)N(C)C)cc1[N+](=O)[O-] the Potency was “inactive”.
Cc1nc2c(C(=O)NCCC(C)C)c[nH]n2c(=O)c1Cc1ccccc1F was tested, and the Potency was active: 70.8 µM.
In the case of CCOc1cc(N2CCOCC2)c(OCC)cc1NC(C)C(=O)N1CCN(CC)CC1 (stereo not drawn), the Potency is reported as inconclusive: 100 µM [inhibitor, partial curve, poor fit].
In the case of NS(=O)(=O)c1ccc(NC(=O)/C=C/c2ccco2)cc1, the Potency is reported as active: 25.1 µM.
For Cc1[nH]c(C)c(S(=O)(=O)NCc2ccc(Cl)cc2)c1C(=O)N1CCCC1, the Potency was “inactive”.
NS(=O)(=O)c1ccc(-c2ccc(/C=C3\C(=O)Nc4ccccc43)o2)cc1 was tested, and the Potency was inconclusive: 56.2 µM [inhibitor, partial curve].
In the case of O=C(Nc1ccc(Cc2ccncc2)cc1)C1CCC(N2C(=O)C3CC=CCC3C2=O)CC1 (stereo not drawn), the Potency is reported as inconclusive: 89.1 µM [inhibitor, single point].
For O=C(NNC(=O)c1ccc(-c2ccccc2)cc1)c1ccccc1, the Potency was “inactive”.
In the case of O=C(CSc1nc2ccccc2nc1N1CCOCC1)N1CCN(c2ccccc2)CC1, the Potency is reported as inconclusive: 89.1 µM [inhibitor, single point].
COc1ccccc1NC(=O)C1=C(C)Nc2c(C(=O)Nc3ccc(C)cc3)cnn2C1c1cccc(OC)c1OC (stereo not drawn) was tested, and the Potency was “inactive”.
For Cc1ccccc1NC(=O)c1cc2c(-c3ccccc3)nn(-c3ccccc3)c2s1, the Potency was “inactive”.
In the case of O=[N+]([O-])c1ccc(S(=O)(=O)Nc2nc(-c3ccccc3)cs2)cc1, the Potency is reported as inconclusive: 0.447 µM [inhibitor, full curve, poor fit].
For COc1cccc(C(=O)Nc2ccc(-n3nncc3-c3ccccc3)cc2)c1OC, the Potency was inconclusive: 89.1 µM [inhibitor, single point].
With COc1ccc(C(=O)Nc2ccc3c(c2)C(=O)c2ccccc2C3=O)cc1OC the Potency was active: 2.24 µM.
With COc1cc(C(=O)N/N=C/c2cn(Cc3ccccc3)c3ccccc23)ccc1O the Potency was inconclusive: 50.1 µM [inhibitor, single point].
In the case of CC(C)(C)c1csc(NC(=O)Cc2cccs2)n1, the Potency is reported as active: 22.4 µM.
C=C(C)C(=O)Nc1cccc(C2=NOC3(C2)C[C@H](C(N)=O)N(C(=O)c2ccccc2C(=O)c2ccccc2)C3)c1 (stereo partly drawn) was tested, and the Potency was active: 8.91 µM.
For O=C(CN1C(=O)c2ccc([N+](=O)[O-])cc2C1=O)NCc1ccco1, the Potency was “inactive”.
CCc1sc2nc(SCC(=O)Nc3cc(C)on3)n(-c3cccc(OC)c3)c(=O)c2c1C was tested, and the Potency was inconclusive: 63.1 µM [inhibitor, partial curve, poor fit].
In the case of COc1ccc(C2CC(=O)c3c([nH]c(C(=O)OCc4ccccc4)c3C)C2)cc1 (stereo not drawn), the Potency is reported as inconclusive: 79.4 µM [inhibitor, single point].
In the case of COc1ccccc1NC(=O)Cc1noc(CSc2n[nH]c(N)n2)n1, the Potency is reported as “inactive”.
For CCc1c(C)sc2c1CCN(Cc1cccc(OC)c1)C2c1ccccc1 (stereo not drawn), the Potency was “inactive”.
CCC1=Nc2cc(C(=O)NCCc3ccc(OC)c(OC)c3)ccc2Sc2ccccc21 was tested, and the Potency was “inactive”.
In the case of NNC(=O)C1CCCn2c1nc1sc3c(c1c2=O)CCCC3 (stereo not drawn), the Potency is reported as “inactive”.
CCc1ccccc1S(=O)(=O)Cc1ccc(C(=O)NCc2ccc(Cl)cc2)o1 was tested, and the Potency was inconclusive: 89.1 µM [inhibitor, single point].
For COC(=O)c1ccc(Cl)cc1NC(=O)Nc1nnc(N(C)C2CCCCC2)s1, the Potency was “inactive”.
With CCOc1ccc(Cl)cc1CNc1nnnn1C the Potency was inconclusive: 56.2 µM [inhibitor, partial curve].
In the case of O=C(NCc1cccs1)C1CCCN1C(=O)Nc1ccc(F)cc1 (stereo not drawn), the activity change, negative = inhibition is reported as inconclusive: -30.7% [inhibitor].
In the case of O=C(c1cccc(NS(=O)(=O)c2cccc(F)c2)c1)N1CCCC1, the Potency is reported as inconclusive: 10 µM [inhibitor, full curve].
Cc1cc(NC(=O)C2C3C=CC(C3)C2C(=O)O)no1 (stereo not drawn) was tested, and the Potency was inconclusive: 25.1 µM [inhibitor, full curve].
In the case of O=S(=O)(Oc1ccccc1C(=S)N1CCOCC1)c1ccc(Cl)cc1, the Potency is reported as inconclusive: 1 µM [inhibitor, full curve, poor fit].
For Cc1csc2nc(COC(=O)CNC(=O)c3ccc(F)cc3)cc(=O)n12, the Potency was “inactive”.
In the case of COc1cc(OC)c2c(-c3ccccc3)cc(=O)oc2c1C(CC(=O)N1CCN(c2ccccc2)CC1)c1ccc(N(C)C)cc1 (stereo not drawn), the Potency is reported as inconclusive: 6.31 µM [inhibitor, full curve, poor fit].
For O=C(c1ccc(Cl)c(Cl)c1)N1CCC(=O)N(C(COCc2cccc(Cl)c2)Cc2ccccc2)CC1 (stereo not drawn), the Potency was inconclusive: 0.126 µM [inhibitor, full curve, poor fit].
In the case of CSc1ccc(/C=C2\C(=N)N3N=C(CC(=O)N4CCCCC4)SC3=NC2=O)cc1, the activity change, negative = inhibition is reported as inconclusive: -78.7% [inhibitor].
With CCOC(=O)C1=C(OCc2ccc(Cl)cc2)C2C=C(C)C=CC2N=C1 (stereo not drawn) the Potency was active: 44.7 µM.
Cc1ccc2c(C)c(C(=O)N3CCC(O)(c4ccccc4)CC3)oc2c1C was tested, and the Potency was inconclusive: 89.1 µM [inhibitor, single point].
In the case of CCc1cc(=O)oc2c3c(cc(OCC(=O)NCCC(=O)O)c12)OC(C)(C)CC3, the Potency is reported as inconclusive: 31.6 µM [inhibitor, single point].
With Cc1ccnc(Nc2nc(-c3ccc(O)cc3O)cs2)c1 the Potency was inconclusive: 35.5 µM [inhibitor, full curve, poor fit].
For Cc1ccc(OCc2cc(C(=O)N(C)Cc3cnn(-c4ccccc4C)c3)no2)cn1, the Potency was “inactive”.
With Cc1cccc2sc(NC(=O)C3CCN(S(=O)(=O)c4cc([N+](=O)[O-])ccc4Cl)CC3)nc12 the Potency was inconclusive: 20 µM [inhibitor, full curve].
In the case of COc1ccc(Nc2ncnc3c2cnn3Cc2ccccc2)cc1OC, the Potency is reported as inconclusive: 89.1 µM [inhibitor, single point].
For Cn1c(C(=O)NCCN2CCc3ccccc3C2)cc2c(=O)n(C)c3ccccc3c21, the Potency was inconclusive: 35.5 µM [inhibitor, full curve, poor fit].
For Cc1ccc(C)c(NC(=O)CSc2nc(-c3ccccc3)c(C#N)c(=O)[nH]2)c1, the Potency was active: 56.2 µM.
CCC(=O)Nc1nc(C)c(-c2csc(Nc3cccc(O)c3)n2)s1 was tested, and the Potency was inconclusive: 8.91 µM [inhibitor, full curve].
O=C(O)CCCN1C(=O)/C(=C/c2cn(-c3ccccc3)nc2-c2cccs2)SC1=S was tested, and the Potency was active: 22.4 µM.
COCCCNc1nc2c(-c3cccc(C)c3)nnn2c2ccccc12 was tested, and the Potency was inconclusive: 39.8 µM [inhibitor, partial curve].
Cc1c(Cl)cnc(NC(=O)COC(=O)C(NC(=O)c2ccco2)C(C)C)c1Cl (stereo not drawn) was tested, and the Potency was active: 44.7 µM.
For Cc1cc2nnc(SCC(=O)Nc3ccc(Cl)cc3)n2c(N)n1, the Potency was inconclusive: 1.12 µM [inhibitor, full curve, poor fit].
In the case of Cc1nn(-c2ccccc2)c(N2CCCC2)c1/C=C1\N=C(c2ccccc2)OC1=O, the Potency is reported as inconclusive: 39.8 µM [inhibitor, single point].
In the case of Cc1ccc(Sc2c(C(=O)NCc3cccc(F)c3)[nH]c3ccccc23)cc1, the Potency is reported as inconclusive: 89.1 µM [inhibitor, single point].
O=C(CSc1ccc(-c2cccs2)nn1)Nc1ccccc1 was tested, and the Potency was inconclusive: 39.8 µM [inhibitor, full curve, poor fit].
For COc1cccc(CNc2nc3ccccc3c3nc(-c4cccc(C)c4)nn23)c1, the Potency was “inactive”.
For CO/N=C(/CS(=O)(=O)Cc1ccccc1Cl)c1ccc(Cl)cc1Cl, the Potency was inconclusive: 0.355 µM [inhibitor, full curve, poor fit].
With CCOC(=O)COc1cccc2c(=O)n(CC(=O)NCc3ccc(F)cc3)ccc12 the activity change, negative = inhibition was inconclusive: -35.1% [inhibitor].
With C/C(N)=C(/C#N)C(=O)CSc1nc2ccccc2c(=O)n1Cc1ccc(C)cc1 the Potency was “inactive”.
For Cc1ccc(NC(=O)CSc2nc3ccccc3n2CC(=O)N2CCC(C)CC2)cc1C, the Potency was “inactive”.
For Cc1csc2nc(COC(=O)c3cccc(NC(=O)c4cccc(Cl)c4)c3)cc(=O)n12, the Potency was inconclusive: 4.47 µM [inhibitor, single point].
CCCN(c1ccc(C(C)C)cc1)S(=O)(=O)c1ccc2c(c1)n(C)c(=O)c(=O)n2C was tested, and the Potency was inconclusive: 2.82 µM [inhibitor, full curve].
With COc1ccc([C@@H]2C=C(C(=O)O)O[C@H](OCCCCO)C2)cc1 the Potency was “inactive”.
With Cc1cc(NS(=O)(=O)c2ccc(NC(=O)COc3ccc(Cl)cc3Cl)cc2)no1 the Potency was inconclusive: 0.447 µM [inhibitor, full curve, poor fit].
CN1CCN(CCNC(=O)Nc2ccccc2C(F)(F)F)CC1 was tested, and the Potency was inconclusive: 39.8 µM [inhibitor, single point].
COc1ccc(S(=O)(=O)NC2CCCC2)cc1Br was tested, and the Potency was inconclusive: 89.1 µM [inhibitor, single point].
